{"source": "PubChem BioAssay AID445", "about": "(National Center for Advancing Translational Sciences (NCATS), 2006)", "note": "The other results are listed elsewhere or left out. Further columns of the screen follow, without active or inactive calls. The list favours compounds with an active or inconclusive main result. The note in brackets gives the kind of curve behind each potency; many fits are weak."}
{"assay": "IkB Signaling", "conditions": "ABC-DLBCL IkBa-CBG/CBR dual luciferase ratio (green luciferase fused to IkBa over red control in OCI-Ly3 lymphoma cells), 4 h; measured here: control luc red channel unless noted", "summary_of_the_method": "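Luminescence ratio of IκBα-fused green versus native red beetle luciferase in OCI-Ly3 cells, 4 h post-doxycycline with compound; red signal alone, scaled from basal (0%) to zero light (-100%), flagged nonspecific or cytotoxic effects.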"}
{"smiles": "COc1ccc(-c2nc3cc(C(C)C)ccc3o2)cc1NC(=O)COc1ccc(C)cc1C", "AC50": "15.8 µM [falling, partial curve]"}
{"smiles": "O=C(CSCc1cccc(F)c1)N1CCN(c2ccccc2)CC1", "AC50": "31.6 µM [falling, single point]"}
{"smiles": "O=C(Cn1c(=O)c2ccccc2n(CC(=O)Nc2ccc(F)cc2F)c1=O)NCCc1ccccc1", "AC50": "1.58 µM [falling, full curve]"}
{"smiles": "CCN(C(=O)c1cc2c(=O)oc3ccc(C)cc3c2s1)c1cc(OC)ccc1OC", "AC50": "12.6 µM [falling, single point]"}
{"smiles": "Cn1cc(C(=O)N2CCN(c3cccc(C(F)(F)F)c3)CC2)c2c3ccccc3n(C)c2c1=O", "AC50": "20 µM [falling, single point]"}
{"smiles": "CC(=O)Nc1ccc(NC(=O)Cn2nc(C(=O)Nc3ccc(C)cc3)ccc2=O)cc1", "AC50": "3.16 µM [rising, partial curve, poor fit]"}
{"smiles": "CCN(CC)S(=O)(=O)c1ccc2oc(SCc3ccc(F)cc3)nc2c1", "AC50": "20 µM [falling, partial curve]"}
{"smiles": "CCCOc1ccc(Oc2nc(NCC(C)C)nc(N3CCOCC3)n2)nn1", "AC50": "12.6 µM [falling, partial curve]"}
{"smiles": "COc1ccccc1N1CCN(c2nc(-c3ccc(C)cc3)nc3ccccc23)CC1", "AC50": "39.8 µM [falling, single point]"}
{"smiles": "COc1cccc(NC(=O)C2CCCN(S(=O)(=O)c3ccc4[nH]c(=O)ccc4c3)C2)c1", "note": "(centres undefined)", "AC50": "15.8 µM [falling, partial curve]"}
{"smiles": "CCCCn1c(=N)n(CC(O)COc2ccc(C)cc2)c2ccccc21", "note": "(centres undefined)", "AC50": "12.6 µM [falling, partial curve]"}
{"smiles": "CC(C)Nc1ncnc2c1cnn2-c1ccc(Cl)cc1", "AC50": "10 µM [falling, partial curve]"}
{"smiles": "COc1ccc(N2CC(NC(=O)c3ccc4c(c3)OCO4)CC2=O)cc1", "note": "(centres undefined)", "AC50": "0.1 µM [rising, full curve, poor fit]"}
{"smiles": "COC(=O)Cn1c(=O)c2c(nc3n2CCN3c2ccc(F)cc2)n(C)c1=O", "AC50": "15.8 µM [falling, partial curve]"}
{"smiles": "CSc1ccc(CNC(=O)c2ccc(NC(=O)c3nsc4ccccc34)cc2)cc1", "AC50": "0.158 µM [falling, full curve]"}
{"smiles": "CCOC(=O)C1CCCN(Cc2nc(N)nc(Nc3ccc(Cl)cc3)n2)C1", "note": "(centres undefined)", "AC50": "10 µM [falling, partial curve]"}
{"smiles": "Nc1c(C(=O)Nc2ccccc2)nnn1Cc1ccc(F)cc1Cl", "AC50": "0.398 µM [rising, full curve]"}
{"smiles": "COc1ccc(CNC(=O)c2ccc(=O)oc2)cc1OC", "AC50": "631 nM [rising, partial curve] [measured here: IkB-luc green channel]"}
{"smiles": "CCOc1ccccc1C(=O)Nc1nc2c(s1)CC(C)CC2", "note": "(centres undefined)", "AC50": "20 µM [falling, partial curve]"}
{"smiles": "COc1cc(NC(=O)COCc2cc(-c3ccc(F)cc3)on2)cc(OC)c1OC", "AC50": "31.6 µM [falling, single point]"}
{"smiles": "COc1cc(-c2nnc(SCc3c(F)cccc3Cl)o2)cc(OC)c1OC", "AC50": "7.94 µM [falling, full curve, poor fit]"}
{"smiles": "Cc1nn(C(C)(C)C)c(OC(=O)C(C)(C)C)c1Sc1ccccc1", "AC50": "10 µM [falling, partial curve]"}
{"smiles": "Clc1ccc(OCc2nnc(SCc3nc4ccccc4[nH]3)n2Cc2ccco2)cc1", "AC50": "7.94 µM [falling, partial curve]"}
{"smiles": "Cc1ccsc1CN(C(=O)c1oc2cc(Br)ccc2c1C)C1CCS(=O)(=O)C1", "note": "(centres undefined)", "AC50": "20 µM [falling, single point]"}
{"smiles": "Cc1cc(C(=O)Nc2ccc(C(C)C)cc2)c2c(C)nn(-c3ccccc3)c2n1", "AC50": "7.94 µM [rising, partial curve]"}
{"smiles": "CN(C)CCCN(C(=O)c1ccc2c(c1)OCCO2)c1nc2ccccc2s1", "AC50": "15.8 µM [falling, partial curve]"}
{"smiles": "COc1cccc(CNC(=O)CSc2c3c(nc4cc(Cl)ccc24)CCCC3)c1", "AC50": "39.8 µM [falling, single point]"}
{"smiles": "CCc1cccc(NC2c3ccccc3C(=O)N2c2ccc(C)cn2)c1", "note": "(centres undefined)", "AC50": "15.8 µM [falling, partial curve]"}
{"smiles": "Cc1cccc2c(=O)cc(CSc3ccccc3NC(=O)c3cccc(F)c3)[nH]c12", "AC50": "39.8 µM [falling, partial curve]"}
{"smiles": "COc1ccc(NC(=O)Cn2cnc3c(oc4ccccc43)c2=O)cc1OC", "AC50": "31.6 µM [falling, single point]"}
{"smiles": "N#C/C(=C\\c1ccc[nH]1)Sc1nc2ccccc2s1", "AC50": "25.1 µM [falling, single point]"}
{"smiles": "CCCOc1c(Cl)cc(C(=O)N(Cc2cccc(OC)c2)C2CCS(=O)(=O)C2)cc1Cl", "note": "(centres undefined)", "AC50": "31.6 µM [falling, partial curve]"}
{"smiles": "CCOc1ccc(NC(=O)c2cnc(N3CCCCC3)c3ccccc23)cc1", "AC50": "6.31 µM [falling, partial curve]"}
{"smiles": "CCOC(=O)c1c(-c2ccccc2)csc1NC(=O)c1cc(-c2ccc(F)cc2)on1", "AC50": "25.1 µM [falling, partial curve]"}
{"smiles": "CN(c1ccccc1)S(=O)(=O)c1nnc(NC(=O)c2ccccc2)s1", "AC50": "0.0126 µM [rising, full curve]"}
{"smiles": "Cc1ccc2nc(NC(=O)CNS(=O)(=O)c3ccc(Br)s3)sc2c1", "AC50": "31.6 µM [falling, partial curve]"}
{"smiles": "Cc1oc(-c2cccc(Cl)c2)nc1CN1CCC(C(=O)NCCCN2CCN(c3cccc(Cl)c3)CC2)CC1", "AC50": "25.1 µM [falling, single point]"}
{"smiles": "COc1ccc(CCCc2nnc(SCC(=O)Nc3nccs3)n2C)cc1C", "AC50": "10 µM [falling, partial curve]"}
{"smiles": "NC(=O)c1ccsc1NC(=O)CSc1ccccc1F", "AC50": "15.8 µM [falling, partial curve]"}
{"smiles": "CCCCNC(=O)c1[nH]c2ccccc2c1Sc1ccc(C)cc1", "AC50": "39.8 µM [falling, single point]"}
{"smiles": "Cc1ccc(C2c3[nH]c4ccccc4c3CCN2C(=O)Nc2ccc(C)c(C)c2)cc1", "note": "(centres undefined)", "AC50": "7.94 µM [falling, partial curve]"}
{"smiles": "O=C(NCCc1ccc(Cl)cc1)c1ccc(CSCc2ccccc2Cl)o1", "AC50": "25.1 µM [falling, single point]"}
{"smiles": "CC(=O)c1cccc(NC(=O)c2nc(-c3ccc(C)cc3)n3c2CCCCC3)c1", "AC50": "1 µM [rising, single point]"}
{"smiles": "Cc1ccc(NC(=O)C(=O)NCc2ccc(Cl)cc2)cc1", "AC50": "0.316 µM [falling, full curve]"}
{"smiles": "CCc1ccc2nc(N3CCC(C(=O)O)CC3)sc2c1", "AC50": "0.794 µM [falling, partial curve]"}
{"smiles": "Cc1c(Cl)cccc1-n1c(CCC(=O)O)ccc1-c1cccs1", "AC50": "25.1 µM [falling, partial curve]"}
{"smiles": "COc1ccc(Br)cc1CNC(=O)C(C)n1nc(C)n2c(cc3occc32)c1=O", "note": "(centres undefined)", "AC50": "25.1 µM [falling, single point]"}
{"smiles": "CCCCN(CCCC)S(=O)(=O)c1ccc(OC)c2ncccc12", "AC50": "10 µM [falling, partial curve]"}
{"smiles": "CCc1cccc(NC(=O)CN2C(=O)CCc3cc(S(=O)(=O)N4CCOCC4)ccc32)c1", "AC50": "20 µM [falling, partial curve]"}
{"smiles": "Cc1ccc(CN2CCSc3ccc(C(=O)Nc4ccc(F)cc4F)cc32)cc1", "AC50": "10 µM [falling, partial curve]"}
{"smiles": "COc1cccc2c1C(=O)c1c(O)c3c(c(O)c1C2=O)C[C@@](O)(C(=O)CO)C[C@H]3O[C@H]1C[C@@H](N)[C@H](O)[C@@H](C)O1.[W]", "AC50": "2.51 µM [falling, partial curve]"}
{"smiles": "Cc1cc(=O)n(CC(=O)NCCC(C)C)c2c1c(C)nn2C", "AC50": "3.98 µM [rising, single point]"}
{"smiles": "Cc1sc2nc(CN(Cc3cccs3)C(=O)NC3CCCCC3)[nH]c(=O)c2c1C", "AC50": "39.8 µM [falling, single point]"}
{"smiles": "Cc1ccc(C)c(S(=O)(=O)c2cnc(SCC(=O)Nc3ccc(F)cc3F)[nH]c2=O)c1", "AC50": "39.8 µM [falling, partial curve]"}
{"smiles": "CCN(CC)CCNC(=O)C1CCCN(c2ncnc3onc(C)c23)C1", "note": "(centres undefined)", "AC50": "1.26 µM [falling, full curve, poor fit]"}
{"smiles": "Cc1ccc(C)c(-c2csc(-c3c(N)c(C(=O)c4ccc5c(c4)OCO5)n4ccccc34)n2)c1", "AC50": "0.631 µM [falling, full curve]"}
{"smiles": "Cc1cccc(NC(=O)Cn2c(=O)oc3cc(S(=O)(=O)NCc4ccccc4)ccc32)c1", "AC50": "20 µM [falling, partial curve]"}
{"smiles": "Cc1ccc2nc(N(Cc3cccnc3)C(=O)C3CCCCC3)sc2c1", "AC50": "3.16 µM [falling, partial curve]"}
{"smiles": "COc1ccc(NC(c2ccc(F)cc2)c2nnc(-c3ccccc3Cl)o2)cc1Cl", "note": "(centres undefined)", "AC50": "7.94 µM [falling, full curve, poor fit]"}
{"smiles": "O=C(c1ccco1)N1CCN(c2ncnc3c2[nH]c2ccc(Br)cc23)CC1", "AC50": "25.1 µM [falling, partial curve]"}
{"smiles": "CCC12CN3CC(C)(CN(C1)C3c1c[nH]c3ccccc13)C2=O", "note": "(centres undefined)", "AC50": "39.8 µM [falling, single point]"}
{"smiles": "CCc1ccc(NC(=O)CSC2=Nc3ccccc3C3=NC(CCC(=O)NCCc4ccccc4)C(=O)N23)cc1", "note": "(centres undefined)", "AC50": "25.1 µM [falling, single point]"}
{"smiles": "O=C(Nc1ccc(F)cc1Cl)n1ncc2cc(Cl)ccc21", "AC50": "20 µM [falling, single point]"}
{"smiles": "CCC(=O)N1CCc2cc(S(=O)(=O)NC(CC(C)C)C(=O)Nc3cc(C)ccc3OC)ccc21", "note": "(centres undefined)", "AC50": "15.8 µM [falling, partial curve]"}
